The text below walks through data of publication PMC5294562.

Amino acid sequences for entries named in this document (tags omitted).
UniProt Q14160: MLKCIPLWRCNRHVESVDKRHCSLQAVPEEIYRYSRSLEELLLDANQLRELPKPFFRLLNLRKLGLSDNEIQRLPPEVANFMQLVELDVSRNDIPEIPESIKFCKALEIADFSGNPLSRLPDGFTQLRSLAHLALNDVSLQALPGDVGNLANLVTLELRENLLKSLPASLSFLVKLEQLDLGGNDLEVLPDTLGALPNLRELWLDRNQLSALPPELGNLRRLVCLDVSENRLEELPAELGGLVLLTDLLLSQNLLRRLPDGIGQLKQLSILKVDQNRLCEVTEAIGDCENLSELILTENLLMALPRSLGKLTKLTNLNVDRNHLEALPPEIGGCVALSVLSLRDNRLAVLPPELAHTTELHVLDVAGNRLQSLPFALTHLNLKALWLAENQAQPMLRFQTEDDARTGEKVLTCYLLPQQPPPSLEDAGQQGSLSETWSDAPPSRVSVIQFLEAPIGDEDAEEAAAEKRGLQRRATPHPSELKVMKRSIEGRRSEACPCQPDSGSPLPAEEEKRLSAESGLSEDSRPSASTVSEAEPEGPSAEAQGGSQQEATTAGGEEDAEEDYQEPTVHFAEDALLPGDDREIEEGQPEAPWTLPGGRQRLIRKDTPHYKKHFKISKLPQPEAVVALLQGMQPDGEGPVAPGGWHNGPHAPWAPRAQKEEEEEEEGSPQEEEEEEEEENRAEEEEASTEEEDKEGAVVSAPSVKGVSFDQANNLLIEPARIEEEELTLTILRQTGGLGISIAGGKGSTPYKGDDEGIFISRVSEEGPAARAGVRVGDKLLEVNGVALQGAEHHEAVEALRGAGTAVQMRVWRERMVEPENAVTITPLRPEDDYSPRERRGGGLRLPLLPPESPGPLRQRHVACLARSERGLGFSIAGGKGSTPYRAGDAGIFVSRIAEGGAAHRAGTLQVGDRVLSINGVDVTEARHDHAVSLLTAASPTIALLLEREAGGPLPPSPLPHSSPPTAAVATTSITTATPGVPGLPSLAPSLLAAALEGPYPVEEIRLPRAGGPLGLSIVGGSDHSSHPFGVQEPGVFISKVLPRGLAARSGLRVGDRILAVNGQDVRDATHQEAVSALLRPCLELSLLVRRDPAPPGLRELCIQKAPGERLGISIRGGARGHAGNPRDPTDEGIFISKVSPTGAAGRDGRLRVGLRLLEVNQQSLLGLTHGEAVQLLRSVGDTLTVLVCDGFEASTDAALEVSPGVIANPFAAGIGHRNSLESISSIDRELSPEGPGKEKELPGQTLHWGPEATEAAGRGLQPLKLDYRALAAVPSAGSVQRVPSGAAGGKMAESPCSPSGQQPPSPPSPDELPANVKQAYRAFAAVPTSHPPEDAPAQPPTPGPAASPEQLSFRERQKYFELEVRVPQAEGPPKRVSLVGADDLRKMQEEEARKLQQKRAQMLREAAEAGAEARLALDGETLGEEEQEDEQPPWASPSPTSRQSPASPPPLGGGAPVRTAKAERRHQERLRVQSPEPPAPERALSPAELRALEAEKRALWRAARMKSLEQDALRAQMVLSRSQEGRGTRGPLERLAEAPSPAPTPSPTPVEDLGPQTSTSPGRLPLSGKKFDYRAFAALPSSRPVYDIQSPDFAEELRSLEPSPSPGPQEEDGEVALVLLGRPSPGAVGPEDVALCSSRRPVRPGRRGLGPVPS
UniProt Q8TDM6: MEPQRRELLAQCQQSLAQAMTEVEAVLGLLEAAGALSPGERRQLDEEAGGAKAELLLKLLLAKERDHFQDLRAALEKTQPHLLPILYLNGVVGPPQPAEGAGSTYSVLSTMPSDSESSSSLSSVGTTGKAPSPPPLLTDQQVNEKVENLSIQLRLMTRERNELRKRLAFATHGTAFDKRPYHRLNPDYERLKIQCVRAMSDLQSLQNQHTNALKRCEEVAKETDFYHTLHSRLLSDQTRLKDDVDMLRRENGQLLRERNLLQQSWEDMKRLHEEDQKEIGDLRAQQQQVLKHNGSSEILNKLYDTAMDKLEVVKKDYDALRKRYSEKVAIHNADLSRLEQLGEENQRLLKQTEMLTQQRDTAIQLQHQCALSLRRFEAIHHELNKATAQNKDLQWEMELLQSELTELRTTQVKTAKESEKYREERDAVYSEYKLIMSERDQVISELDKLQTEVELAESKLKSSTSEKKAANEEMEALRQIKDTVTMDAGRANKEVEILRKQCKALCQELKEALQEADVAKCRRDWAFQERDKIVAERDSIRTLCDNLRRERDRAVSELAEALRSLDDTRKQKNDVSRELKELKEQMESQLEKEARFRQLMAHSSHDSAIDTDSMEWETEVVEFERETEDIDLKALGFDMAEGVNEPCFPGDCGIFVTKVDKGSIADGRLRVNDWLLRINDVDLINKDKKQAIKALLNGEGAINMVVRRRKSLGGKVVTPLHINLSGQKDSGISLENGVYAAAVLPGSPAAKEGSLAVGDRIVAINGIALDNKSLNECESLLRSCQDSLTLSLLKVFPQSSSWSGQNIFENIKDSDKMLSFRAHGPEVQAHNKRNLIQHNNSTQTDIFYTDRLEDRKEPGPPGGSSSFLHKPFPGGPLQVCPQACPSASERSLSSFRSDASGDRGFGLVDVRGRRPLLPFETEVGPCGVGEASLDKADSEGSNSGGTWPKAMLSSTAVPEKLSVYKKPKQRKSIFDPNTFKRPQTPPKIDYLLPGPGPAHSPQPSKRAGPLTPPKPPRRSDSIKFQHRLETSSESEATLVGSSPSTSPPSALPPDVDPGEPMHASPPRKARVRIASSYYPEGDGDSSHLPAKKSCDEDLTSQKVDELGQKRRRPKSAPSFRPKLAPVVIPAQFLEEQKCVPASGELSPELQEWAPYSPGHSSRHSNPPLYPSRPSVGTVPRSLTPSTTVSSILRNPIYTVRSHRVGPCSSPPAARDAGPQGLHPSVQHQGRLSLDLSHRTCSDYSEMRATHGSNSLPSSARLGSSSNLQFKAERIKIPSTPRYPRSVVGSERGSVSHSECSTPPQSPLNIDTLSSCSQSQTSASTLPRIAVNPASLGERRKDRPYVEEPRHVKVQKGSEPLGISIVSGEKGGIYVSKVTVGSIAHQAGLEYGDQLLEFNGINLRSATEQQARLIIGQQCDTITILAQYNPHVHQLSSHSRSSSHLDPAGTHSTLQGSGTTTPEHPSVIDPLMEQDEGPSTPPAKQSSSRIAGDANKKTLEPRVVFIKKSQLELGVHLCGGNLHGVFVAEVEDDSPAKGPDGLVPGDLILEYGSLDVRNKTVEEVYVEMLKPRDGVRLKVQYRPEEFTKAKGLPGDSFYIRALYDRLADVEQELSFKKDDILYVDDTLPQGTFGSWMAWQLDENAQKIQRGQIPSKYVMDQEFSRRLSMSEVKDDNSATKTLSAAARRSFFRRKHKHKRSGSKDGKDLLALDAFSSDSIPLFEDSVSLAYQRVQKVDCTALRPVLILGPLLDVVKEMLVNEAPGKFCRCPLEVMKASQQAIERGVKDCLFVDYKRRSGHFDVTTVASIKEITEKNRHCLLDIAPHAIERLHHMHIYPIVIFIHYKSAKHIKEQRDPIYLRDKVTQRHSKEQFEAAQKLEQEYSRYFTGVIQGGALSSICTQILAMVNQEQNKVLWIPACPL

These are yes or no findings as the source states them, for the method shown. In cells and extracts the contact can be indirect. Some entries that bind do so weakly or less than the wild type.

This test has as its target Scribble (human (endogenous in MCF10A)) (UniProt Q14160). Description: co-IP; endogenous proteins in NC and MCF10A-shDLG5 (DLG5 knock-down) cells, detected by western blot; which protein was precipitated not given. In general terms: In western blotting, separated proteins are transferred to a membrane and probed.

As for “Discs Large Homolog 5 (DLG5) (from UniProt Q8TDM6 1-1919)”, the binding entry is recorded as “binds”.
